No constants are given. Whether binding was seen depends on the method and setting. Binding seen in cells or lysates may run through a third protein. Some entries that bind do so weakly or less than the wild type. Where a sequence is shown, tags or fusion partners need not be part of it.

Here are results for one molecule from PMC7719784.

The target of the assay is T1, Cdhr1a-FLAG (zebrafish) (UniProt Q6B3P0).
T1 sequence: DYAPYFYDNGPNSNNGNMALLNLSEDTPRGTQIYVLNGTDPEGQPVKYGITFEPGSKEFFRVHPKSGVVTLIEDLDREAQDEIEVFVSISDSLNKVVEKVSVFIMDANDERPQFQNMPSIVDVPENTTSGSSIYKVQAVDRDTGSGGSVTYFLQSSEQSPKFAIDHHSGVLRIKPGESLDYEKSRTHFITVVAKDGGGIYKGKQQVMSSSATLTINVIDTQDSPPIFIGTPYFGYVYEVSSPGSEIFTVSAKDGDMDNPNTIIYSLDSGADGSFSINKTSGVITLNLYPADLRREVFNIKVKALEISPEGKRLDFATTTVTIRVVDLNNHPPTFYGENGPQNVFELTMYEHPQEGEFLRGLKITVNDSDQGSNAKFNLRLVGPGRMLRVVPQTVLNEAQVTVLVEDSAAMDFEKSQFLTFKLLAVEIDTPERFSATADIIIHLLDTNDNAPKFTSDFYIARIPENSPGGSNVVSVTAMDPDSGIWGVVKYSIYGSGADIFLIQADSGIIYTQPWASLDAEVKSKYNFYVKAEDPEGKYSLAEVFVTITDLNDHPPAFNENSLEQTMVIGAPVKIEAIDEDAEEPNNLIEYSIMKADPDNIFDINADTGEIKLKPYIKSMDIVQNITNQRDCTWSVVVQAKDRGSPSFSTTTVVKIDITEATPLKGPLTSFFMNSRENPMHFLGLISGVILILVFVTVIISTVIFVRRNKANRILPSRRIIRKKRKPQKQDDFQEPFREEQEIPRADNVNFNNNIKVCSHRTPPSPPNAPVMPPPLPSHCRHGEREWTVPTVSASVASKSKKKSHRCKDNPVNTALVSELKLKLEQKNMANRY
As to the kind of experiment: co-IP; HEK 293 cells co-transfected with Cdhr1a-FLAG and Siah1-myc or Siah1ΔRING-myc; treated with MG132 for 6 h prior to lysis; precipitated with FLAG antibodies; blot probed for FLAG and MYC.

B1: Siah1-myc (enzyme, UniProt Q7ZVG6 1-282)
chain: MSRQTATALPTGTSKCPPSQRVPTLSGTTASNSDLASLFECPVCFDYVLPPILQCQSGHLVCSNCRPKLTCCPTCRGPLGSIRNLAMEKVANSVLFPCKYASSGCEVTLPHTDKAEHEELCEFRPYSCPCPGASCKWQGSLDAVMPHLLHQHKSITTLQGEDIVFLATDINLPGAVDWVMMQSCFGFHFMLVLEKQEKYDGHQQFFAIVQLIGTRKQAENFAYRLELNGHRRRLTWEATPRSIHEGIATAIMNSDCLVFDTSIAQLFAENGNLGINVTISMC
Consider B1, for which the binding entry was “binds”.
